# Laboratory results from PMC12167490.
# Tested on: SIRT6-ΔC (SIRT6-Δ298-355)
# Assay: EMSA
# Conditions: 50 nM DNA, binds, but larger shift not observed up to 7 uM protein, EMSA: 50 mM Tris pH 7.5, 20 mM NaCl, 2 mM MgCl2, 2 mM DTT, RT 15 min, 10 ul, 5% TBE gel, recombinant protein, protein details: tag cleaved with TEV, label: none (ethidium bromide stain)
sequence,measurement,value
CTACTGGTACGGCAGACAGGATGTATATATCTGACACGTGCCTGGAGACTAGGGAGTAATCCCCTTGGCGGTTAAAACGCGGGGGACAGCGCGTACGTGCGTTTAAGCGGTGCTAGAGCTGTCTACGACCAATTGAGCGGCCTCGGCACCGGGATTCTCCAGTATTCGAGGCCGTTC (double strand) [ds601 DNA (177 bp)],binding result,binds more weakly

# Construct, isoform or probe ends are uncertain for at least one entry. A weaker result is weaker than the reference pair of the same experiment.
